Where a protein sequence is shown, tags need not be part of it.
biological target: T1, CLAMP (CLAMPmel) (Drosophila melanogaster) (UniProt Q9V9N4); test: EMSA; conditions: recombinant protein; residues 1-561; label: biotin
T1 sequence (looked up): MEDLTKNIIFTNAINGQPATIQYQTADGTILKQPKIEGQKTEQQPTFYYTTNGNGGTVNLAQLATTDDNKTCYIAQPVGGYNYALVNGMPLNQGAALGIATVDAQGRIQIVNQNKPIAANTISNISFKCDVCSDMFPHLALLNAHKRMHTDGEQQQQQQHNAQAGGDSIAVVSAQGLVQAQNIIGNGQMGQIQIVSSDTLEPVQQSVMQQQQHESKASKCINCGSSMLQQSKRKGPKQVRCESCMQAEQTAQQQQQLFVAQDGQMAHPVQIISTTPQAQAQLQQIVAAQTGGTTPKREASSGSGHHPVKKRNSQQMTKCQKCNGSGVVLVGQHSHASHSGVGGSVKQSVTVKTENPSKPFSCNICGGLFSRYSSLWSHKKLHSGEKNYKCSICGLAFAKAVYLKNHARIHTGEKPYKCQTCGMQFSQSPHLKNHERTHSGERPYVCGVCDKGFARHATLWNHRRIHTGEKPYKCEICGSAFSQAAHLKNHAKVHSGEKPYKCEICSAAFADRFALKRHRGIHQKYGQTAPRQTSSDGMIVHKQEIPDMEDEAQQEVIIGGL

Binding result, binds:
CACCACGAATGTCACTGAGGTACTAATGCTAGCTCTTCGGGCAGCGCTTATATTTATACCAAAAACCAAAAAGACGAGCGAGTGAAAACATATTTCCATCTCGCTCACATACTACCCTTGTAACATATTCGACAAAACAGCGAACAGCGAATATATCGTTCTCTTTCTAACTTATCACTCATTTTCTATATAAGCGATACACAAACGAGACGCACGATTATTGTGTTTTTAACA (double strand) [Wild-type Dvir H3/H4 promoter]
CACCACGAATGTCACTGAGGTACTAATGCTAGCTCTTCGGGCAGCGCTTATATTTATACCAAAAACTCAAAAAGACTGAAAACATATTTCCATACATACTACCCTTGTAACATATTCGACAAAACAGCGAACAGCGAATATATCGTTCTCTTTCTAACTTATCACTCATTTTCTATATAAGCGATACACAAACGAGACGCACGATTATTGTGTTTTTAACA (double strand) [Dvir GAΔ H3/H4 promoter]
CACAGCACGAAAGTCACTAAAGAACTAATTTCAACGTTTCTGTGTGCCCCTATTTATAGGTAAAACGACAAAAACCCGAGAGAGTACGAACGATATGTTCGTTCGCTTTTCGCTCGTCAAATGAAATGGCCTCTGTTTTTCTCTCTCTCTCTCTCTCTCTTTCACCGTCCACGATTGCTATATAAGTAGGTAGCAAATGCTCTGATCGTTTATTGTGTTTTCAAAC (double strand) [Wild-type Dmel H3/H4 promoter]

From doi:10.1101/2022.12.14.520423
